# Publication PMC10601247
# Results are given in words; binding and its absence hold for the method and conditions named. In cells and extracts the contact can be indirect. A yes stands for co-enrichment or nearness to the bait. Other partners may have been found. Where a sequence is shown, tags or fusion partners need not be part of it.
# T1: His-tagged recombinant flotillin-2 (UniProt Q14254)
# T1 sequence: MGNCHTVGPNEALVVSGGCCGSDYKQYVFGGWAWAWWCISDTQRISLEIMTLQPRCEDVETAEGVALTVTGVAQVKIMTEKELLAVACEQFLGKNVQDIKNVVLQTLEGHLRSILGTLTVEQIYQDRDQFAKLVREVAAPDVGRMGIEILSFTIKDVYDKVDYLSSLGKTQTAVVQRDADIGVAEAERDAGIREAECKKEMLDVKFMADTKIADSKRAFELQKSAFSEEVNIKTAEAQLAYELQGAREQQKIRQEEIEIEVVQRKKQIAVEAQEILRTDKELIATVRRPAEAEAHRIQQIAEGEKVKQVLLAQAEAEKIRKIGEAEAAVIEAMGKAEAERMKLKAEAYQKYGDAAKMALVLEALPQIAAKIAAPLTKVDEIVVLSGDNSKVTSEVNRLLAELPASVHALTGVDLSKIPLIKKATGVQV
# B1: EFR3A (endogenous, HeLa cells) (protein, UniProt Q14156 1-821)
# chain: MPTRVCCCCSALRPRYKRLVDNIFPEDPKDGLVKTDMEKLTFYAVSAPEKLDRIGSYLAERLSRDVVRHRSGYVLIAMEALDQLLMACHSQSIKPFVESFLHMVAKLLESGEPKLQVLGTNSFVKFANIEEDTPSYHRRYDFFVSRFSAMCHSCHSDPEIRTEIRIAGIRGIQGVVRKTVNDELRATIWEPQHMDKIVPSLLFNMQKIEEVDSRIGPPSSPSATDKEENPAVLAENCFRELLGRATFGNMNNAVRPVFAHLDHHKLWDPNEFAVHCFKIIMYSIQAQYSHHVIQEILGHLDARKKDAPRVRAGIIQVLLEAVAIAAKGSIGPTVLEVFNTLLKHLRLSVEFEANDLQGGSVGSVNLNTSSKDNDEKIVQNAIIQTIGFFGSNLPDYQRSEIMMFIMGKVPVFGTSTHTLDISQLGDLGTRRIQIMLLRSLLMVTSGYKAKTIVTALPGSFLDPLLSPSLMEDYELRQLVLEVMHNLMDRHDNRAKLRGIRIIPDVADLKIKREKICRQDTSFMKKNGQQLYRHIYLGCKEEDNVQKNYELLYTSLALITIELANEEVVIDLIRLAIALQDSAIINEDNLPMFHRCGIMALVAAYLNFVSQMIAVPAFCQHVSKVIEIRTMEAPYFLPEHIFRDKCMLPKSLEKHEKDLYFLTNKIAESLGGSGYSVERLSVPYVPQVTDEDRLSRRKSIVDTVSIQVDILSNNVPSDDVVSNTEEITFEALKKAIDTSGMEEQEKEKRRLVIEKFQKAPFEEIAAQCESKANLLHDRLAQILELTIRPPPSPSGTLTITSGHAQYQSVPVYEMKFPDLCVY
# Molecular target: T1, His-tagged recombinant flotillin-2
# Experiment: affinity purification with mass spectrometry; recombinant flotillin-2 covalently conjugated to CNBr Sepharose 4B, blocked with BSA; HeLa DRM fraction mixed 1:1 with lysis buffer (50 mM Tris pH 7.5, 300 mM NaCl, 2% octyl β-D-glucopyranoside, 2 mM EDTA), 16 h; gel fragment with bands larger than 60 kDa to MS/MS; unconjugated resin as control; only the target purified
binder,measurement,value
B1,binding,binds
